One substance from paper doi:10.1101/2023.01.23.525126 can be followed below.

The chains behind the UniProt entries cited, without tags or fusion partners. Residues count along the entry.
UniProt Q00960, residues 27-1482: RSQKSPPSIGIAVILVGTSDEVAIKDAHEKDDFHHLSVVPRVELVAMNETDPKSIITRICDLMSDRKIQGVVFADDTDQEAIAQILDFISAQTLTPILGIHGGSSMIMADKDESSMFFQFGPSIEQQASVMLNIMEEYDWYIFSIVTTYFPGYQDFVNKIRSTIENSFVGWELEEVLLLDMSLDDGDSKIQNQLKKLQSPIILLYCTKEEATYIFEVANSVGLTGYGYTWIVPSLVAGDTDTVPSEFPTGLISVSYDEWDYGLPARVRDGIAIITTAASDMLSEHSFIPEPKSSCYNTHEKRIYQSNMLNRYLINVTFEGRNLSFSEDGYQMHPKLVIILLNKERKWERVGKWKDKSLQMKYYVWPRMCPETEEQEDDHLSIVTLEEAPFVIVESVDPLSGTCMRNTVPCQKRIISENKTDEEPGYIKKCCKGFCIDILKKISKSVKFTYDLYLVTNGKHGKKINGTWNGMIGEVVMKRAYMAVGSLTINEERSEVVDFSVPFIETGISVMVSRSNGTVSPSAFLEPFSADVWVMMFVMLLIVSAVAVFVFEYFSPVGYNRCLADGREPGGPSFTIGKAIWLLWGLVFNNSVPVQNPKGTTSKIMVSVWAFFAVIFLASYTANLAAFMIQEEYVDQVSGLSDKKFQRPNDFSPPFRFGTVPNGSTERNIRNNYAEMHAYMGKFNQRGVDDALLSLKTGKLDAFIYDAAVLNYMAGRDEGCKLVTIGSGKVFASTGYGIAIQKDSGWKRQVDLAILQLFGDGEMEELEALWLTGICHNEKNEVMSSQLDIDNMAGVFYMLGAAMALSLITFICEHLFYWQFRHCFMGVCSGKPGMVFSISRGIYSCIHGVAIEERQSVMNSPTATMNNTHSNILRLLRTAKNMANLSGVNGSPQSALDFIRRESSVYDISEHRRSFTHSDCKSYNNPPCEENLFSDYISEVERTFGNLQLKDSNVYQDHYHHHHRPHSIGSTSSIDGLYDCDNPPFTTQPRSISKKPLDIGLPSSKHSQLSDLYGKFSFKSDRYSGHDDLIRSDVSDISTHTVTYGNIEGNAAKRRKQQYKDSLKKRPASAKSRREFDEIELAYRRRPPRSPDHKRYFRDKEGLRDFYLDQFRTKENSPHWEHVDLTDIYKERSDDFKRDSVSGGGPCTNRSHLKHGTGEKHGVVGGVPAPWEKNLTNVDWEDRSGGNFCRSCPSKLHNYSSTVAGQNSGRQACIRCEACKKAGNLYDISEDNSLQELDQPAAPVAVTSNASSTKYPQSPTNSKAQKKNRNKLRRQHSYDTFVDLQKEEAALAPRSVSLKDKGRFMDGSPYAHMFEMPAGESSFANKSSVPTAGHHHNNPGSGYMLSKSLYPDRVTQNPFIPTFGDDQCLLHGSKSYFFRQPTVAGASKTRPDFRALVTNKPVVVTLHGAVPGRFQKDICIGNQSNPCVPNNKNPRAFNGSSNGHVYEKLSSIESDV

No constants are given. Whether binding was seen depends on the method and setting. In cells and extracts the contact can be indirect. Some results given as binding are weak or reduced against the parent protein; the word gives no strength. Tags and fused reporters may be left off the sequences shown.

The target of the test is T1, DRACC1 (Disordered Region And Coiled-Coil Domain 1; FAM81A), DRACC1-FLAG (mouse) (UniProt Q3UXZ6).
T1 sequence: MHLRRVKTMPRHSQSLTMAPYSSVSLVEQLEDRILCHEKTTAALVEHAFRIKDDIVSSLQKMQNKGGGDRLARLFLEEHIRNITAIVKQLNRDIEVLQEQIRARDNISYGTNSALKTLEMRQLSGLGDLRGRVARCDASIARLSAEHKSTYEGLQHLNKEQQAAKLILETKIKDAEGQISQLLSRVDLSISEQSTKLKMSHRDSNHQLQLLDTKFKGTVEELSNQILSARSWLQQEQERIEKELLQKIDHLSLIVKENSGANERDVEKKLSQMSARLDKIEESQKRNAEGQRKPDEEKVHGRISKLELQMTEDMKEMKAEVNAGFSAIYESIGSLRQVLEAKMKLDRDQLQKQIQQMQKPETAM
The experiment in a line: co-IP.

Consider “GFP-GluN2B (pCI-EGFP-NR2b wt) (from UniProt Q00960 27-1482) (receptor)”, for which the binding result was “binds”.
